Data source: PubChem BioAssay AID1224830 (NIAID, 2016)

- Aim: 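Host factors that control LPS-induced TNF expression in human macrophages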 (primary screen)
- Cells: human THP-1 monocytic leukaemia cells, TNF dual-luciferase reporter clone, PMA-differentiated to macrophage-like cells
- Reagents: siRNA pool against human genes, 50 nM
- Timing: LPS for 4 h, given about 3 days after siRNA transfection
- Conditions: bacterial LPS (TLR4 ligand), 10 ng/ml
- Read-out: 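Ratio of firefly to renilla light, scaled to the plate median and expressed as a robust z-score per replicate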
- Direction: TNF reporter robust z-score: higher = stronger TNF reporter response to LPS
- Hit rule: 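a well is active when its z-score exceeds 2.8 or falls below -1.5; control wells carry no call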
The whole screen tested about 18,000 reagents; this is a part drawn at random. In the full data, about 2,900 (16%) were called active. 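Calls are made per well; low scores hint the gene aids the LPS response, high scores that it dampens it.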 Repeated entries: four replicate wells of each siRNA pool.

gene,PubChem SID,TNF reporter robust z-score,Call
OSGEPL1 (GeneID 64172),SID315458857,-0.22,inactive
OSGEPL1 (GeneID 64172),SID315458857,1.15,inactive
OSGEPL1 (GeneID 64172),SID315458857,0.47,inactive
OSGEPL1 (GeneID 64172),SID315458857,-0.69,inactive
STN1 (GeneID 79991),SID315459610,-0.79,inactive
STN1 (GeneID 79991),SID315459610,-1.45,inactive
STN1 (GeneID 79991),SID315459610,-1.13,inactive
STN1 (GeneID 79991),SID315459610,-0.14,inactive
GYG1 (GeneID 2992),SID315449116,-0.4,inactive
GYG1 (GeneID 2992),SID315449116,0.75,inactive
GYG1 (GeneID 2992),SID315449116,-0.24,inactive
GYG1 (GeneID 2992),SID315449116,1.82,inactive
ULK1 (GeneID 8408),SID315452543,0.07,inactive
ULK1 (GeneID 8408),SID315452543,-0.69,inactive
ULK1 (GeneID 8408),SID315452543,-0.36,inactive
ULK1 (GeneID 8408),SID315452543,-0.56,inactive
LIN28A (GeneID 79727),SID315459416,-0.29,inactive
LIN28A (GeneID 79727),SID315459416,-0.17,inactive
LIN28A (GeneID 79727),SID315459416,-0.19,inactive
LIN28A (GeneID 79727),SID315459416,0.09,inactive
SLC38A11 (GeneID 151258),SID315462486,1.26,inactive
SLC38A11 (GeneID 151258),SID315462486,0.65,inactive
SLC38A11 (GeneID 151258),SID315462486,1.88,inactive
MT1M (GeneID 4499),SID315450058,0.22,inactive
MT1M (GeneID 4499),SID315450058,0.79,inactive
MT1M (GeneID 4499),SID315450058,-0.2,inactive
MT1M (GeneID 4499),SID315450058,0.28,inactive
DNAAF3 (GeneID 352909),SID315464263,-1.91,active
DNAAF3 (GeneID 352909),SID315464263,-1.82,active
DNAAF3 (GeneID 352909),SID315464263,-1.96,active
DNAAF3 (GeneID 352909),SID315464263,-1.62,active
GGT2P (GeneID 728441),SID315465191,-0.44,inactive
GGT2P (GeneID 728441),SID315465191,1.15,inactive
GGT2P (GeneID 728441),SID315465191,1.26,inactive
GGT2P (GeneID 728441),SID315465191,-0.8,inactive
JMJD4 (GeneID 65094),SID315459083,-0.81,inactive
JMJD4 (GeneID 65094),SID315459083,-0.09,inactive
JMJD4 (GeneID 65094),SID315459083,-0.89,inactive
JMJD4 (GeneID 65094),SID315459083,0.74,inactive
IFT122 (GeneID 55764),SID315457838,-1,inactive
IFT122 (GeneID 55764),SID315457838,-0.6,inactive
IFT122 (GeneID 55764),SID315457838,-0.23,inactive
IFT122 (GeneID 55764),SID315457838,-0.92,inactive
PRR13 (GeneID 54458),SID315457012,1.37,inactive
PRR13 (GeneID 54458),SID315457012,0.8,inactive
PRR13 (GeneID 54458),SID315457012,1.31,inactive
PRR13 (GeneID 54458),SID315457012,1.52,inactive

Entries above with an active call:
gene,PubChem SID,TNF reporter robust z-score,Call
DNAAF3 (GeneID 352909),SID315464263,-1.91,active
DNAAF3 (GeneID 352909),SID315464263,-1.82,active
DNAAF3 (GeneID 352909),SID315464263,-1.96,active
DNAAF3 (GeneID 352909),SID315464263,-1.62,active
